Experimental data taken from article PMC3543376.
No constants are given. Whether binding was seen depends on the method and setting. Binding seen in cells or lysates may run through a third protein. Some entries that bind do so weakly or less than the wild type.

Protein sequences, listed by entry. Tags and fused reporters are not part of them. Lines headed by an entry give the natural chain unless they say otherwise; changes in a name come on top. Chains listed by the source or under a name are the forms on record and can include a tag or linker.
UniProt P40763: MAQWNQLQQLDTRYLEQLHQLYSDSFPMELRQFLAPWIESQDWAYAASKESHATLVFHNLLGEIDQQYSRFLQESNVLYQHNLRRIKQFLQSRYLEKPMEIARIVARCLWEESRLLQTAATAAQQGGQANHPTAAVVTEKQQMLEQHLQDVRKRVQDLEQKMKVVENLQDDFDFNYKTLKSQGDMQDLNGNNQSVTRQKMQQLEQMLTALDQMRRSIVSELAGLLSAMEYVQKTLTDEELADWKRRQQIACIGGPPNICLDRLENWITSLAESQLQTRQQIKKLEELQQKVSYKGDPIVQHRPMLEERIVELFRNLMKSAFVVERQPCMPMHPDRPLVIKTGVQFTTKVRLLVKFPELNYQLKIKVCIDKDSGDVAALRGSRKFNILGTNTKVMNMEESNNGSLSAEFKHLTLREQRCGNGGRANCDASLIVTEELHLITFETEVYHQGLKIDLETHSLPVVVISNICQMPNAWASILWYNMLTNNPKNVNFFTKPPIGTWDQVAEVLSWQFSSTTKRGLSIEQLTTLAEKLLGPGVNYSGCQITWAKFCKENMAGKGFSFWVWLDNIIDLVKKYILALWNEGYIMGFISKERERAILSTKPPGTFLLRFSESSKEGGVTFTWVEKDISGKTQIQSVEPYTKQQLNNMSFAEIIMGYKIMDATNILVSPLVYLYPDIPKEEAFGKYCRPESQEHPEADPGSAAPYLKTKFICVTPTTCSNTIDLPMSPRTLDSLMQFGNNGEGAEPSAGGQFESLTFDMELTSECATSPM
UniProt O60674: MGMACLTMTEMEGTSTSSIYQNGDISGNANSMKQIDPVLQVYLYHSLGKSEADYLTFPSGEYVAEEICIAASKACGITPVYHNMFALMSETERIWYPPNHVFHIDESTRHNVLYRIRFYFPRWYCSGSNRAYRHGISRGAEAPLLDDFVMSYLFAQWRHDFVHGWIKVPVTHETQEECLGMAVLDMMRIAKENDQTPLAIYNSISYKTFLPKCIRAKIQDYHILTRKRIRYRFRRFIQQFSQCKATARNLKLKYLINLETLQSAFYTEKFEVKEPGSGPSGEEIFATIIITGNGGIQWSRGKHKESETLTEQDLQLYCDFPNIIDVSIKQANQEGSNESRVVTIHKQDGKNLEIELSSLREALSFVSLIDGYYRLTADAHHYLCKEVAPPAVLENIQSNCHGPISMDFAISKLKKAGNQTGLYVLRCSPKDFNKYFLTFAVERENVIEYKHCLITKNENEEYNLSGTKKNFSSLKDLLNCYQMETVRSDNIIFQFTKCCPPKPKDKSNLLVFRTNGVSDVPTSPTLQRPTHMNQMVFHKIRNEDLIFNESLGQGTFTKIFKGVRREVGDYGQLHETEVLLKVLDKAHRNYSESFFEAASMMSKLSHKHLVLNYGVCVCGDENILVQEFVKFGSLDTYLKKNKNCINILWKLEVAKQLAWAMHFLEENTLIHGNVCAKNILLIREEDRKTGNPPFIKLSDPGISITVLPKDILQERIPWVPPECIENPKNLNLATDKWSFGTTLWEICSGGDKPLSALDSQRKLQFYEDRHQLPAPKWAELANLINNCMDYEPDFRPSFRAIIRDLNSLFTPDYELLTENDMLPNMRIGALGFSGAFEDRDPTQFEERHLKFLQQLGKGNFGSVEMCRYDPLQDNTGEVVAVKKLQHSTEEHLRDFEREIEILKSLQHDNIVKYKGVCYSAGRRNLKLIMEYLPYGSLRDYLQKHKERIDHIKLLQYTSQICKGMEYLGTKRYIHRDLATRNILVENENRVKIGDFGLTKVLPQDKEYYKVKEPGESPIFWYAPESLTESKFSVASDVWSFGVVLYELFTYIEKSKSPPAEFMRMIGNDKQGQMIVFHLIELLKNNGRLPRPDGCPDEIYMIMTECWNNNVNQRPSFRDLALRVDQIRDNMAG
standard isoform of CD44 (CD44s, 85 kDa) (P16070-12, form named): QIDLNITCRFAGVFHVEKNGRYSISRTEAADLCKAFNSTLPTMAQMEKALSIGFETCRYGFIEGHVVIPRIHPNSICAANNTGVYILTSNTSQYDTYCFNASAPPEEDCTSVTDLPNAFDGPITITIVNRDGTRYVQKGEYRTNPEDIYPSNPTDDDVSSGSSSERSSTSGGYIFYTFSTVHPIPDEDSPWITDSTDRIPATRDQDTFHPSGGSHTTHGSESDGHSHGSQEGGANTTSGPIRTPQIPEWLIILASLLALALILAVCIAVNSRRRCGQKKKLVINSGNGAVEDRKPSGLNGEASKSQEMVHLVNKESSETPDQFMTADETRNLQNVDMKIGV

How the values were obtained:
[1] = biological target: Signal transducer and activator of transcription 3 (STAT3) (human (endogenous in MCF10DCIS)) (UniProt P40763); assay: co-IP; MCF10DCIS cell lysates, cells incubated 24 h with or without BXL0124 (10 nM); antibodies to STAT3 or JAK2 immobilised on protein G Dynabeads, 10-minute incubation, three washes; detection by Western blot
[2] = biological target: Janus kinase 2 (JAK2) (human (endogenous in MCF10DCIS)) (UniProt O60674); assay: as above

standard isoform of CD44 (CD44s, 85 kDa) (from UniProt P16070-12 21-361) (receptor)
binding [1]: binds
binding [2]: binds
